Measured values published in US20240294926.
The exact form of at least one protein or probe is not confirmed.

By UniProt entry, the sequences of proteins in these tests, tags left out. Residues count along the entry.
UniProt P09874, 2-1014: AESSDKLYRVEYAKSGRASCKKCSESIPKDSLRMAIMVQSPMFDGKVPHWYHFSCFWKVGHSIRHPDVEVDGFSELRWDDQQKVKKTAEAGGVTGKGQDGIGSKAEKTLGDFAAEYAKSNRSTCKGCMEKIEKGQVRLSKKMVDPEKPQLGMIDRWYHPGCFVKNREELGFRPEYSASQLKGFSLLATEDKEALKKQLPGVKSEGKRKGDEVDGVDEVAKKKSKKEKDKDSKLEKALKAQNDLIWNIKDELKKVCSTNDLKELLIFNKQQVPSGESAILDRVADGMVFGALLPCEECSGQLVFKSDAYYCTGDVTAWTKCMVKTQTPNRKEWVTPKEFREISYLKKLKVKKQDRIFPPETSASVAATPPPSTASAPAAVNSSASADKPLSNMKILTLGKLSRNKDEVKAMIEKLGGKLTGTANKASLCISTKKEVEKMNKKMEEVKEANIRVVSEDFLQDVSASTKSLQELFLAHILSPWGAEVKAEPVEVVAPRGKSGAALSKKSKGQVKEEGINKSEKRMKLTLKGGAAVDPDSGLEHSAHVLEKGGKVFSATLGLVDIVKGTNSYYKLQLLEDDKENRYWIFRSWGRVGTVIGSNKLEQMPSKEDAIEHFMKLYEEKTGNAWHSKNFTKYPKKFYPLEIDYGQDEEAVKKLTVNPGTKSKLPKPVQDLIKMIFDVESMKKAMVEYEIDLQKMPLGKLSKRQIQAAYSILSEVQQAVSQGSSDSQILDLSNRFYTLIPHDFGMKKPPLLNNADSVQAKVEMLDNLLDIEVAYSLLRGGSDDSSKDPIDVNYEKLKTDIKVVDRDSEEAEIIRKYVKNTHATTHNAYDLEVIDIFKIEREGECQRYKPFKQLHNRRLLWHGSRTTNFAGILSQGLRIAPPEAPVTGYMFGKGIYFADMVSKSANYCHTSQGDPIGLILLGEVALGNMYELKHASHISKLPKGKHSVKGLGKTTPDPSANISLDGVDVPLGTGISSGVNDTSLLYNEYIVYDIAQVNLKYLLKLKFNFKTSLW

Biological target: PARP-1 (poly-[ADP-ribose] polymerase 1) (Homo sapiens) (UniProt P09874)
Experiment: SPR
Conditions: FANA (2'-deoxy-2'-fluoroarabino) nucleotides and PS linkages (positions only in images), cholesterol-conjugated, HEG loop, purified recombinant protein, protein details: His-tag, Thermofisher

CCCAGCAAACAAGCCT (double strand) [OX413]
Kd (first of two listed components, kon 3.7e4 M-1s-1, koff 1.7e-3 s-1, folded or branched DNA): 45 nM
Kd (second of two listed components, kon 4.7e3 M-1s-1, koff 3.9e-4 s-1, folded or branched …): 85 nM
